Results deposited as PubChem BioAssay AID1259254 (NCATS, 2017)
The whole screen tested about 59,000 reagents; shown is a part drawn at random. About 1,550 of all reagents (2.6%) count as active. 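G2 share is only a proxy for re-replication; each gene was hit by three separate siRNAs, and active genes were retested.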 Entries without a mark were called inactive. Reagents against one gene are numbered here. Not all columns of the deposit are shown. Not given: the amount of reagent.

Assay: 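Finding genes that stop cells copying their DNA twice in one cycle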 (primary screen)
Cells: human HCT116 colorectal cancer cells
Reagent: single siRNA against human genes
Time to read-out: 3 days
Measured: 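Imaged Hoechst DNA stain sorts each cell into a cycle phase by DNA amount; per plate, G2 fraction set to 0% for non-targeting and 100% for GMNN siRNA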
Direction: G2 robust z-score: higher = more G2 cells, more excess DNA replication
Hit rule: 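An siRNA counts as active if its G2 robust z-score lies at least 5 MADs above the screen median; here such calls match roughly 38% of GMNN control or more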

| gene symbol | siRNA no. | G2 robust z-score |
| --- | --- | --- |
| ZNF677 | 1 | -0.0228 |
| ZNF677 | 2 | -0.0539 |
| ZNF677 | 3 | 1.59 |
| MARCKSL1 | 1 | 3.15 |
| MARCKSL1 | 2 | 6.22 (active) |
| MARCKSL1 | 3 | 3.84 |
| CENPBD1P | 1 | 2.73 |
| CENPBD1P | 2 | -0.24 |
| CENPBD1P | 3 | 0.0943 |
| HK1 | 1 | -0.939 |
| HK1 | 2 | 0.519 |
| HK1 | 3 | -0.547 |
| TMEM42 | 1 | -0.212 |
| TMEM42 | 2 | 0.868 |
| TMEM42 | 3 | 0.316 |
| EPCAM | 1 | 0.518 |
| EPCAM | 2 | -0.756 |
| EPCAM | 3 | 0.503 |
| POMK | 1 | 2.69 |
| POMK | 2 | -0.261 |
| POMK | 3 | 1.82 |
| CLCNKB | 1 | 5.53 (active) |
| CLCNKB | 2 | 0.287 |
| CLCNKB | 3 | -0.133 |
| PGM2 | 1 | 1.81 |
| PGM2 | 2 | 1.27 |
| PGM2 | 3 | 0.743 |
| ITGA2 | 1 | -0.252 |
| ITGA2 | 2 | 0.0818 |
| ITGA2 | 3 | 0.637 |
| CLXN | 1 | 0.753 |
| CLXN | 2 | 0.0298 |
| CLXN | 3 | 0.645 |
| ATP2A2 | 1 | -0.148 |
| ATP2A2 | 2 | 1.73 |
| ATP2A2 | 3 | -0.463 |
| VAV3 | 1 | -1.41 |
| VAV3 | 2 | 0.533 |
| VAV3 | 3 | 0.693 |
| MMP24 | 1 | 5.32 (active) |
| MMP24 | 2 | 3.02 |
| MMP24 | 3 | 0.0116 |
| TRIM11 | 1 | -1.41 |
| TRIM11 | 2 | -0.45 |
| TRIM11 | 3 | 0.726 |
| NMI | 1 | -0.691 |
| NMI | 2 | -0.144 |
| NMI | 3 | 0.861 |

In a second layout: 4 of the entries above
gene symbol | siRNA no. | G2 robust z-score
VAV3 | 2 | 0.533
VAV3 | 3 | 0.693
MMP24 | 1 | 5.32 (active)
MMP24 | 2 | 3.02
